# No constants are given. Whether binding was seen depends on the method and setting. Binding seen in cells or lysates may run through a third protein. Some results given as binding are weak or reduced against the parent protein; the word gives no strength.
# Sequences of proteins named here, by UniProt entry; tags and fusion partners are left off. A change or cut given only in a name is not applied to a line headed by its entry.
# UniProt P10961: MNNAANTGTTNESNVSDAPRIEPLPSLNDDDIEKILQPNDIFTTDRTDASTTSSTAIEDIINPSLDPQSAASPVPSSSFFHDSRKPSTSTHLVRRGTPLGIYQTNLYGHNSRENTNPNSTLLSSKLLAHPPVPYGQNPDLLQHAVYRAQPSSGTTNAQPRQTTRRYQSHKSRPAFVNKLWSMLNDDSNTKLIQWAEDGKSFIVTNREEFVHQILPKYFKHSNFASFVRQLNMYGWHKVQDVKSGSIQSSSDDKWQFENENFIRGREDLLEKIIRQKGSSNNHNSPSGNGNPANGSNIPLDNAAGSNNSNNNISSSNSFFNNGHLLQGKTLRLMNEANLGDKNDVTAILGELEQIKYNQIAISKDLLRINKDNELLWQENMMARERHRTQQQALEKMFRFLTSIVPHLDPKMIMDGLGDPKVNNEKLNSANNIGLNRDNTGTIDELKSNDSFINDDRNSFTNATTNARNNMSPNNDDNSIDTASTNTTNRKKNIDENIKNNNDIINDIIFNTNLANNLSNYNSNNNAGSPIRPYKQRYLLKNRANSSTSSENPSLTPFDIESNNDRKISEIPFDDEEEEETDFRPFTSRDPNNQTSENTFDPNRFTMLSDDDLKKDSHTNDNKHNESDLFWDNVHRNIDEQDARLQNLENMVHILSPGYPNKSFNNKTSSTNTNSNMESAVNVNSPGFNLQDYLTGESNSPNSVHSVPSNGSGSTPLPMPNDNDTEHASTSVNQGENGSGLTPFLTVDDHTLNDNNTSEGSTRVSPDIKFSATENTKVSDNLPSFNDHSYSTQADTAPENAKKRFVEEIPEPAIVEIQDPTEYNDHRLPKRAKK
# UniProt P10591: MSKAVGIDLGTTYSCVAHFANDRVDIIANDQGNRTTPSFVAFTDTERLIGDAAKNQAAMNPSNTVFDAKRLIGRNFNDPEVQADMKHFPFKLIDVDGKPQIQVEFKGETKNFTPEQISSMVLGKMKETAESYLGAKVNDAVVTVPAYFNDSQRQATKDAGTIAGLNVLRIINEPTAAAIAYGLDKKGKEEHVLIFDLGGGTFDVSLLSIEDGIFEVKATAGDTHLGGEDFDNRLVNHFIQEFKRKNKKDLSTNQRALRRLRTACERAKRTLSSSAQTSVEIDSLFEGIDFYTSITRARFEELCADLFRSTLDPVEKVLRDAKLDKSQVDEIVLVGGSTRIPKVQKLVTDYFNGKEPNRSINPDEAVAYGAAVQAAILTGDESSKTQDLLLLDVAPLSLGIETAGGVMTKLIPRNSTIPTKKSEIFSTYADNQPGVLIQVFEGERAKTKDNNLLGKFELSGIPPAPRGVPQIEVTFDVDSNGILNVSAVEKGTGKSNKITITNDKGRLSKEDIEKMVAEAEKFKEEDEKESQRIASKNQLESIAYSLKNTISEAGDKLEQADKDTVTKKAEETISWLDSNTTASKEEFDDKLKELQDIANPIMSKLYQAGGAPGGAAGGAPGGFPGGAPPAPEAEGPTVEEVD
# Target: Hsf1-GFP-FLAG (S. cerevisiae) (UniProt P10961)
# Experiment: co-IP
row,Substance,binding
1,Ssa1 (wild type) (from UniProt P10591 1-642),binds
2,"Ssa1-2CD (C264D, C303D) (from UniProt P10591 1-642)",no binding
3,"Ssa1-2CS (C264S, C303S) (from UniProt P10591 1-642)",binds
